# At least one structure is not confirmed: it was looked up by name or label, or the drawing left a doubt. Some compounds share one wording; it may come from a single statement.
# Experiments:
# [1] = test system: insulin-induced H-35 hepatoma cells; test: Intracellular polyamine levels in insulin-induced H-35 hepatoma cells; format: cell-based, rat; settings: 100 μM, hour 4
# [2] = test system: rat H-4-II-E hepatoma cells; test: Cell morphology of rat H-4-II-E hepatoma cells (photomicrographs); format: cell-based
# Method: (§1) Incubation of the cultures was carried out in standard fashion in the presence of 1 mM aminoguandine, an inhibitor of polyamine oxidases (PAO).
# FIG. 7 is a series of photomicrographs (×160) of the above homologous cultures. The photomicrographs were taken 24 hours after introduction of the dibenzyldiaminoalkanes. […] Photo 7A is the control culture.
# [3] = biological target: T1, ODC (Rattus norvegicus, UniProt P09057); settings: isolated ODC
# T1 sequence (P09057 1-461): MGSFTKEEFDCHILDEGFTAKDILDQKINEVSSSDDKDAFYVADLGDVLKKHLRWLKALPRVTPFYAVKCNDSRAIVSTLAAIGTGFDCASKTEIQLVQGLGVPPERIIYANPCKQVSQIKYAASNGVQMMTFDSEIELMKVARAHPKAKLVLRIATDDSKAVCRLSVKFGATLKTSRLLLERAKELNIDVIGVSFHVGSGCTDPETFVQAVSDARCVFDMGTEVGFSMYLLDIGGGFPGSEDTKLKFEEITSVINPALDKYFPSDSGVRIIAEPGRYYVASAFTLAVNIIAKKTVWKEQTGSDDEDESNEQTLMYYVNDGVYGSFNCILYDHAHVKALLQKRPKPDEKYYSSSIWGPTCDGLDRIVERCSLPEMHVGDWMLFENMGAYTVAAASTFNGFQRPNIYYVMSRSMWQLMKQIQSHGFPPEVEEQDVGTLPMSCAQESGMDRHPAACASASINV
# [4] = test system: human brain tumor cell line U-251-MG; test: Growth of human brain tumor cell line U-251-MG; format: cell-based; settings: 100 μM
# [5] = test system: rat H-4-II-E hepatoma cells; test: Proliferation of rat H-4-II-E hepatoma cells in culture; format: cell-based
# Method: as §1
# Cell proliferation studies were also conducted to analyze the effect of the terminal groups on cell inhibition. […] The results are depicted graphically in FIG. 5.
# Comparative proliferation studies were also carried out to study the effect of chain length on the inhibitory effect of N,N'-dibenzylaminoalkanes. (See FIG. 6.) The in vitro inhibitory effects of DMP, DMC, and DBPr, were studied in the same rat H-4-II-E hepatoma cells as the above experiments.
# Results are shown graphically in FIG. 10.
# [6] = test system: active putrescine transport; test: Uptake of (1,4-14C)-putrescine by H-4-II-E hepatoma cells; format: cell-based, rat; settings: (1,4-14C)-putrescine 10 μM
# Method: (1,4-^14 C)-putrescine (10 μM) was added to the culture medium, and radioactivity measured in the cells (dpm/10 μg of protein). Uptake by control cells was considered to be 100%.
# Because putrescine uptake by cells is regulated by an active transport system, its Km was determined for the H-4-II-E hepatoma cell line. The uptake of (1,4-^14 C)-putrescine was determined at two different putrescine concentrations as a function of time.
# Each value of the plot was corrected by subtracting the amount of label due to non-specific binding to the cell membranae.
# [7] = 1 mM, 1 mM aminoguanidine, DBP at 24 hours
SMILES,intracellular putrescine level [1],intracellular spermine level [1],effect on cell morphology ([2]; 1 mM),in vitro ODC inhibition (in words) [3],effect on cell growth [4],"effect on cell proliferation ([5]; 100 μM, time not stated)","effect on cell proliferation [5, 7]",inhibition of uptake of exogenous putrescine [6],"effect on cell morphology ([2]; 100 μM, 24 hours)"
"CNCCCCNC [DMP, dimethyl putrescine]",decreased the endogenous levels of putrescine,Neither reagent had an effect on the intracellular concentration of spermine,no effect on cell morphology,weaker inhibitors than putrescine itself,without effect,without effect,weak inhibitors of cell proliferation,,
"CCNCCCCNCC [DEP, diethyl putrescine]",,,no effect on cell morphology,weaker inhibitors than putrescine itself,,without effect,weak inhibitors of cell proliferation,,
"c1ccc(CNCCCNCc2ccccc2)cc1 [DBPr, dibenzylpropanediamine]",,,,weaker inhibitors than putrescine itself,,showed inhibition of cell proliferation,,produced an inhibition of the uptake of exogenous putrescine,affected cell morphology to a lesser extent

# Source: patent US5677350A, “Inhibition of cancer cell growth, proliferation, and metastasis using N,N'-dα,ω-diaminoalkanes” (priority 1995, dated 1997)
